# Reference: PubChem BioAssay AID504467 (National Center for Advancing Translational Sciences (NCATS), 2011)
# Out of some 330,000 compounds screened, about 7,700 (2.3%) were called active. The inconclusive results got no clear call from the source; some entries with a clear call stand among them for comparison. The call rests on the fitted dose curve; in most records, active means well fitted inhibition curve with a large enough effect; inconclusive means small, poorly fitted or top-dose-only effect, or effect the other way; inactive means flat fitted curve, though single readings scatter. Potencies of inconclusive entries are doubtful fits and often do not repeat.
# Experiment: qHTS screen for small molecules that inhibit ELG1-dependent DNA repair in human embryonic kidney (HEK293T) cells expressing luciferase-tagged ELG1; further: nearly all actives have a fitted effect of over 55% in size
# Conditions: HEK293T ELG1-luciferase reporter, luminescence, 16 h, DNA damage induced by 5-fluorouridine; activity change, negative = inhibition: at 46.1 µM (top of the series)
# Procedure, shortened: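 DMSO vehicle served as the neutral condition. Each well held 2,000 cells given 5-fluorouridine plus compound; after 16 hr at 37 °C/5% CO2, ONE-Glo was added and luciferase measured 30 min later.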
# On the % scale 0 is the no-effect control and ±100 the full control effect; potency means the concentration at half of the fitted maximal effect.
Structure (SMILES),Potency,"activity change, negative = inhibition"
O=C(CCC(=O)N1CCSc2ccccc21)NC1CCCCC1,"inconclusive: 16.4 µM [activator, single point]",
Cc1noc(C)c1COC(=O)c1cc(=O)[nH]c2ccccc12,,inactive: 9.96%
COc1ccc(-n2ncc3c(SCC(=O)NNC(C)=O)ncnc32)cc1,"inconclusive: 5.17 µM [activator, full curve]",
CCOc1ccc(NC(=O)c2nsc(Cl)c2Cl)cc1,"inconclusive: 11.6 µM [activator, partial curve]",
CCC1(CC)NC(=O)N(CC(=O)Nc2ccc(OCc3ccccc3)cc2)C1=O,"inconclusive: 23.1 µM [inhibitor, single point]",
CCC(=O)c1ccc(OCc2ccc(C(=O)OC)o2)c(OC)c1,,inactive: 7.97%
COc1ccc(/C=C/c2c(-c3ccc(OC)cc3)oc(=O)c3cc(OC)c(OC)cc23)cc1,active: 5.8 µM,
CCOc1ccc(-c2cc3nc(C4CCN(C(=O)OC(C)(C)C)CC4)c(C(=O)O)cn3n2)cc1,"inconclusive: 29.1 µM [inhibitor, single point]",
CCOC(=S)SCC(=O)Nc1nc(-c2ccccc2)cs1,"inconclusive: 29.1 µM [activator, single point]",
COc1ccc(-c2nc(C#N)c(NCc3ccc(F)cc3)o2)cc1OC,"inconclusive: 23.1 µM [inhibitor, single point]",
Cc1ccc2cccc(OCc3cccc([N+](=O)[O-])c3)c2n1,,inactive: -2.2%
COc1ccccc1N(C)S(=O)(=O)c1ccc(C)c(C(=O)Nc2nccs2)c1,"inconclusive: 18.3 µM [inhibitor, partial curve]",
COc1ccc(C2C(C#N)=C(N)OC3=C2C(=O)CC(C)C3)c(OC)c1OC (centres undefined),,inactive: 0.73%
CN(C)C(=O)N1CCC(C(=O)N2CCCC(C(=O)c3ccc(C(C)(C)C)cc3)C2)CC1 (centres undefined),active: 14.6 µM,
CNC(=O)CSc1n[nH]c(-c2cc(Cl)ccc2OC)n1,"inconclusive: 18.3 µM [activator, single point]",
O=c1c2cnn(-c3ccccc3)c2nnn1Cc1ccccn1,"inconclusive: 20.6 µM [inhibitor, single point]",
O=C(Nc1scc(-c2ccccc2)c1C(=O)O)c1ccc(F)cc1,"inconclusive: 25.9 µM [activator, partial curve]",
Cc1cc(=O)[nH]c(NCCO)n1,,inactive: 7.6%
O=C(O)c1ccccc1/C=N/NC(=S)NCc1ccccc1,,inactive: -12.6%
Cn1c(=N)n(CC(=O)c2cccs2)c2ccccc21,"inconclusive: 4.11 µM [activator, partial curve]",
NC(=O)C1CCN(c2nc(-c3cccs3)cs2)CC1,"inconclusive: 4.11 µM [activator, full curve]",
CSc1sc(C(=O)NNC(C)=O)c2c1C1(CCC2)SCCS1,"inconclusive: 16.4 µM [inhibitor, single point]",
CCc1ccc2nc(SCC(=O)N3CC(=O)Nc4ccccc43)c(C#N)cc2c1,"inconclusive: 11.6 µM [inhibitor, partial curve, poor fit]",

# 20 compounds already listed, arranged by molecular weight, rising:
Structure (SMILES),Potency,"activity change, negative = inhibition"
Cc1cc(=O)[nH]c(NCCO)n1,,inactive: 7.6%
Cn1c(=N)n(CC(=O)c2cccs2)c2ccccc21,"inconclusive: 4.11 µM [activator, partial curve]",
Cc1ccc2cccc(OCc3cccc([N+](=O)[O-])c3)c2n1,,inactive: -2.2%
Cc1noc(C)c1COC(=O)c1cc(=O)[nH]c2ccccc12,,inactive: 9.96%
O=c1c2cnn(-c3ccccc3)c2nnn1Cc1ccccn1,"inconclusive: 20.6 µM [inhibitor, single point]",
O=C(O)c1ccccc1/C=N/NC(=S)NCc1ccccc1,,inactive: -12.6%
CCOc1ccc(NC(=O)c2nsc(Cl)c2Cl)cc1,"inconclusive: 11.6 µM [activator, partial curve]",
CCC(=O)c1ccc(OCc2ccc(C(=O)OC)o2)c(OC)c1,,inactive: 7.97%
O=C(CCC(=O)N1CCSc2ccccc21)NC1CCCCC1,"inconclusive: 16.4 µM [activator, single point]",
CCOC(=S)SCC(=O)Nc1nc(-c2ccccc2)cs1,"inconclusive: 29.1 µM [activator, single point]",
O=C(Nc1scc(-c2ccccc2)c1C(=O)O)c1ccc(F)cc1,"inconclusive: 25.9 µM [activator, partial curve]",
COc1ccc(C2C(C#N)=C(N)OC3=C2C(=O)CC(C)C3)c(OC)c1OC (centres undefined),,inactive: 0.73%
COc1ccc(-n2ncc3c(SCC(=O)NNC(C)=O)ncnc32)cc1,"inconclusive: 5.17 µM [activator, full curve]",
CSc1sc(C(=O)NNC(C)=O)c2c1C1(CCC2)SCCS1,"inconclusive: 16.4 µM [inhibitor, single point]",
CCC1(CC)NC(=O)N(CC(=O)Nc2ccc(OCc3ccccc3)cc2)C1=O,"inconclusive: 23.1 µM [inhibitor, single point]",
CCc1ccc2nc(SCC(=O)N3CC(=O)Nc4ccccc43)c(C#N)cc2c1,"inconclusive: 11.6 µM [inhibitor, partial curve, poor fit]",
COc1ccccc1N(C)S(=O)(=O)c1ccc(C)c(C(=O)Nc2nccs2)c1,"inconclusive: 18.3 µM [inhibitor, partial curve]",
CN(C)C(=O)N1CCC(C(=O)N2CCCC(C(=O)c3ccc(C(C)(C)C)cc3)C2)CC1 (centres undefined),active: 14.6 µM,
COc1ccc(/C=C/c2c(-c3ccc(OC)cc3)oc(=O)c3cc(OC)c(OC)cc23)cc1,active: 5.8 µM,
CCOc1ccc(-c2cc3nc(C4CCN(C(=O)OC(C)(C)C)CC4)c(C(=O)O)cn3n2)cc1,"inconclusive: 29.1 µM [inhibitor, single point]",

# Following part:

Structure (SMILES),Potency,"activity change, negative = inhibition"
S=C(NCCOCCOCCNC(=S)Nc1ccccc1)Nc1ccccc1,"inconclusive: 29.1 µM [inhibitor, single point]",
CC(=O)Cc1nsc(Nc2ccc(Cl)cc2)n1,"inconclusive: 20.6 µM [activator, single point]",
COc1ccc2c(c1)c(/C=C/c1cc[n+](C)cc1)cn2C,"inconclusive: 29.1 µM [inhibitor, single point]",
CCOC(=O)C(Cc1ccccc1)c1ccnc2ncnn12 (centres undefined),,inactive: 14.5%
CN(C)S(=O)(=O)c1cccc(-c2cn3ccccc3n2)c1,"inconclusive: 25.9 µM [activator, single point]",
COc1cc(/C=N/Nc2ccccn2)ccc1OCC(C)C,"inconclusive: 7.3 µM [activator, partial curve]",
COc1ccc(NC(=O)c2ccccc2NC(=O)CSc2ccccc2)cc1,"inconclusive: 14.6 µM [activator, partial curve]",
Cc1ccc(-c2noc(C3CCN(C(=O)Nc4ccc(C#N)cc4)CC3)n2)o1,active: 25.9 µM,
N#CC1=C2SCC(O)(c3ccccc3)N2C(=O)CC1c1cccs1 (centres undefined),"inconclusive: 16.4 µM [activator, partial curve, poor fit]",
Cc1ccc(S(=O)(=O)N2CCN(C(=O)COC(=O)CCOc3ccccc3C)CC2)c(C)c1,"inconclusive: 20.6 µM [activator, partial curve, poor fit]",
COC(=O)CSC(C(=O)Nc1ccc(C)c(C)c1)c1ccccc1 (centres undefined),"inconclusive: 25.9 µM [activator, partial curve, poor fit]",
CCOC(=O)C1=C(C)N(c2ccc(Cl)cc2)C(=O)NC1c1cccc([N+](=O)[O-])c1 (centres undefined),"inconclusive: 25.9 µM [inhibitor, single point]",
CCCC(=O)NCc1ccncc1,,inactive: -1.23%
CC(C)(C)C(=O)N1CCN(c2nc3ccc(Cl)cc3s2)CC1,"inconclusive: 2.31 µM [activator, partial curve, poor fit]",
CCOC(=O)c1c(NC(=O)CSc2nnc(-c3c[nH]c4ccccc34)n2C)sc2c1CCCC2,"inconclusive: 18.4 µM [inhibitor, single point]",
O=C(CC1C[C@H](C(=O)N2CCCCC2)[C@@]2(CCc3ccccc3)c3[nH]c4ccccc4c3CCN2C1=O)NCc1ccco1 (some centres undefined),"inconclusive: 16.4 µM [inhibitor, single point]",
C=CCSc1ncccc1C(=O)O,"inconclusive: 23.1 µM [activator, single point]",
CC(=O)C1=C(C)Nc2ncnn2C1c1ccc(Cl)cc1Cl (centres undefined),"inconclusive: 35.5 µM [inhibitor, single point]",
C[C@H](CO)N1C[C@H](C)[C@@H](CN(C)C(=O)Nc2ccc(C(F)(F)F)cc2)Oc2c(NC(=O)Nc3ccc4c(c3)OCO4)cccc2C1=O,active: 0.58 µM,
O=C1CSc2ccc(C(=O)NCc3ccccn3)cc2N1,"inconclusive: 16.4 µM [activator, single point]",
CCCCc1cc(=O)oc2c(C)c(OCC(=O)N3CCC(C(N)=O)CC3)ccc12,"inconclusive: 0.146 µM [activator, single point]",
CCOC(=O)c1cc(C)n(CCc2ccccc2)c1C,"inconclusive: 16.4 µM [activator, partial curve]",
Cc1c(NC(=O)C(C)OC(=O)c2cccs2)c(=O)n(-c2ccccc2)n1C (centres undefined),"inconclusive: 10.3 µM [activator, partial curve, poor fit]",

Structure (SMILES),Potency,"activity change, negative = inhibition"
COc1ccc(C2C(C#N)=C(N)Oc3c2c(C)nn3-c2ccccc2)cc1Cn1nc(C)c([N+](=O)[O-])c1C (centres undefined),"inconclusive: 18.4 µM [inhibitor, single point]",
Cc1ccc(NC(=O)NCc2ccccn2)cc1Cl,"inconclusive: 29.1 µM [activator, partial curve, poor fit]",
CCc1nn(CCCC(=O)N2CCN(c3cccc(C)c3C)CC2)c(=O)c2cc3occc3n12,"inconclusive: 18.3 µM [inhibitor, partial curve]",
Nc1ncnc2nc[nH]c12,"inconclusive: 15.8 µM [activator, single point]",
Cc1cc(Nc2ccccc2F)n2ncnc2n1,"inconclusive: 23.1 µM [activator, single point]",
Cc1cc(C)c2c(-n3cccc3)c(C(=O)O)sc2n1,"inconclusive: 1.46 µM [activator, partial curve]",
N#Cc1ccccc1NC(=O)COC(=O)/C=C/c1cn(-c2ccccc2)nc1-c1ccc(Cl)cc1,,inactive: -0.295%
CSc1nc2n(n1)C(c1cccs1)C1=C(CCCC1=O)N2 (centres undefined),,inactive: 7.83%
COc1ccccc1N1CCN(C(=O)/C=C/c2ccco2)CC1,"inconclusive: 20.6 µM [activator, single point]",
CCCCCCCCn1c(=O)c(C(=O)OC)c(N)c2ccccc21,"inconclusive: 7.3 µM [inhibitor, partial curve]",
CN(CC(=O)Nc1ccc(F)c(F)c1F)C(=O)CCN1C(=O)C2CCCCC2C1=O (centres undefined),,inactive: 0%
COc1ccc(C(CNC(=O)CNS(=O)(=O)c2ccc(NC(C)=O)cc2)N2CCOCC2)cc1 (centres undefined),"inconclusive: 23.1 µM [inhibitor, single point]",
Cc1cc(C)c2nc(-n3nc(C)cc3N)cc(C)c2c1,"inconclusive: 6.51 µM [activator, partial curve]",
Cc1ccsc1C(=O)OCC(=O)N1CCc2ccccc2C1,"inconclusive: 18.3 µM [activator, partial curve]",
S=C1N[C@H]2CCCC[C@@H]2N1,,inactive: 1.69%
Cc1ccc(S(=O)(=O)c2cc3c(=O)n4ccccc4nc3n(C3CCCCC3)c2=N)cc1,,inactive: -0.841%
FC(F)(F)c1ccc(Oc2ccc(Cl)cc2Br)nc1,,inactive: 2.45%
Cc1cc(/C(N)=N/OC(=O)Nc2ccc(Cl)cc2)no1,"inconclusive: 5.17 µM [activator, partial curve, poor fit]",
COc1ccc(C(=O)C(CN2CCOCC2)c2ccccc2)cc1 (centres undefined),"inconclusive: 18.4 µM [inhibitor, partial curve]",
Cc1cc(CN2CCCCC2C(=O)Nc2ccc(Oc3cccnc3)cc2)oc1C (centres undefined),,inactive: 7.17%
CCc1cccc(CC)c1NC(=O)Cn1c(-c2ccccc2Cl)nc2ccccc21,"inconclusive: 10.3 µM [activator, partial curve]",
CC[C@@]1(C(=O)OC)N[C@H](CN(C)C(=O)Nc2ccc(Cl)cc2)[C@@H]2C(=O)N(Cc3ccccc3)C(=O)[C@@H]21,,inactive: 0.0353%
COc1ccccc1NC(=O)c1c(NC(=O)c2ccco2)sc2c1CCC2,,inactive: -27%
